Experimental data: patent publication US20160115136A1, “COMPOUNDS, COMPOSITIONS COMPRSING SAME, AND METHODS RELATED THERETO” (UNIVERSITY OF IOWA RESEARCH FOUNDATION, priority 2013, published 2016)
At least one compound was matched to its structure with a doubt left.

Test system: S. aureus
Experiment: Cell wall lysis assay (modified CytoTox-Glo, luminescence)
Details: S. aureus exposed 24 h; control antibiotics, FIG. 23A

Compound: CN(C)[C@@H]1C(O)=C(C(N)=O)C(=O)[C@@]2(O)C(O)=C3C(=O)c4c(O)cccc4[C@@](C)(O)[C@H]3C[C@@H]12 [tetracycline]
- luminescence response (cell lysis): no increase in luminescence
